# PubChem BioAssay AID445 (National Center for Advancing Translational Sciences (NCATS), 2006)
# The list shows a part of the results. Shown are side measurements of this screen, not its main read-out; they come without a call. Compounds called inactive in the main read-out are mostly missing here. Potencies come from curve fits of mixed quality, noted in brackets.
# Test: IkB Signaling
# Conditions: ABC-DLBCL IkBa-CBG/CBR dual luciferase ratio (green luciferase fused to IkBa over red control in OCI-Ly3 lymphoma cells), 4 h
# Summary of the method: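 In this assay, an IκBα–CBG68 fusion accumulates when IKK-driven degradation is blocked; native CBR normalizes for cell number. OCI-Ly3 cells were treated 4 h with compound and doxycycline, then green and red light read after Chroma-Glo addition.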
# [1] = measured here: control luc red channel unless noted
smiles,measurement,setting,value
COc1ccc(C2Oc3nc(SC)nnc3-c3ccccc3N2C(C)=O)cc1 (stereo unspecified),AC50,[1],"10 µM [falling, partial curve]"
COc1ccc(NC(=O)C2CCN(c3cnccn3)CC2)cc1Cl,AC50,[1],"15.8 µM [falling, single point]"
Cc1ccc2[nH]c3c(=O)n(CC(=O)NCCc4ccc(Cl)cc4)ncc3c2c1,AC50,[1],"20 µM [rising, partial curve]"
CC(=NCc1ccco1)c1c(C)[nH]n(-c2nc3ccccc3s2)c1=O,AC50,[1],"0.00316 µM [falling, full curve]"
Cc1cccc(NC(=O)COc2cccc3c(=O)n(C)ccc23)c1C,AC50,[1],"20 µM [falling, single point]"
CCOC(=O)c1cc(-c2ccccc2)n(-c2cccc(C(=O)Nc3cccc(C(C)=O)c3)c2)c1C,AC50,[1],"3.98 µM [falling, partial curve]"
COc1cccc(N2CCN(C(=O)CN3C(=O)COc4ccc(S(=O)(=O)N5CCC(C)CC5)cc43)CC2)c1,AC50,[1],"20 µM [falling, single point]"
Cc1oc2c(c(C)cc3oc(=O)c(CC(=O)NCc4ccccc4)c(C)c32)c1C,AC50,[1],"39.8 µM [falling, single point]"
CCN(CC)S(=O)(=O)c1cccc(C(=O)Nc2nc3cc4c(cc3s2)OCCO4)c1,AC50,[1],"3.98 µM [falling, full curve]"
COc1cccc(-c2nccc(NCCc3c[nH]c4ccc(OC)cc34)n2)c1,AC50,[1],"3.16 µM [falling, partial curve]"
CC1(C)CC(=O)CC(C2(O)C(=O)N(Cc3ccccc3)c3ccccc32)O1 (stereo unspecified),AC50,measured here: IkB-luc green channel,"39.8 µM [rising, single point]"
same,AC50,measured here: control luc red channel,"25.1 µM [rising, partial curve]"
COc1ccc(C(=O)NCC(c2cccnc2)N2CCc3ccccc32)cc1OC (stereo unspecified),AC50,[1],"12.6 µM [falling, partial curve]"
Cc1cccc(CNC(=O)c2ccc(NC(=O)N3CCSc4ccccc43)cc2)c1,AC50,[1],"20 µM [falling, single point]"
Cc1cccc(Oc2ccc3c(c2)Oc2ccccc2NC3=O)c1,AC50,[1],"3.98 µM [rising, single point]"
CNC(=O)c1c(NC(=O)c2ccc(S(=O)(=O)N3CCCCC3C)cc2)sc2c1CCC2 (stereo unspecified),AC50,[1],"10 µM [falling, partial curve]"
COc1ccc(-c2nnc(SCC(=O)N(C)Cc3ccccc3)o2)cc1OC,AC50,[1],"2.51 µM [falling, full curve]"
O=S(=O)(Nc1cccc(-c2ccc(N3CCCC3)nn2)c1)c1ccc(F)c(C(F)(F)F)c1,AC50,[1],"20 µM [falling, single point]"
CC1CCN(Cc2ccc(NC(=O)CC3Oc4ccccc4NC3=O)cc2)CC1 (stereo unspecified),AC50,[1],"12.6 µM [falling, partial curve]"
COc1ccc(C(=O)Nc2nnc(C(F)(F)F)s2)cc1,AC50,[1],"0.158 µM [falling, full curve]"
CCCCSCCCNC(=O)C1CCC(CNS(=O)(=O)c2c(C)cc(C)cc2C)CC1 (stereo unspecified),AC50,[1],"5.01 µM [falling, partial curve]"
CC(=O)c1ccc(NC(=O)CCc2c(C)nn(-c3ccc(N4CCCCC4)nn3)c2C)cc1,AC50,[1],"12.6 µM [falling, partial curve]"
O=C(CSc1nc2c([nH]c3ccccc32)c(=O)n1-c1ccccc1)N1CCCCCC1,AC50,[1],"3.16 µM [rising, full curve, poor fit]"
C=CCN1C(=Nc2cccnc2)SCC1(O)c1ccc(C)cc1 (stereo unspecified),AC50,[1],"10 µM [falling, partial curve]"
O=C(NCCCN1CCN(c2ccccc2F)CC1)c1cc2c(s1)-c1ccccc1OC2,AC50,[1],"25.1 µM [falling, partial curve]"
O=C(O)c1ccc(NC(=O)c2cc3ccccc3o2)cc1,AC50,[1],"0.1 µM [falling, full curve]"
CCc1ccc(-n2nc(C)c3c(C)cc(=O)n(CC(=O)Nc4ccccc4C(=O)OC)c32)cc1,AC50,[1],"3.98 µM [falling, partial curve]"
CCCCOc1ccc(C(=O)N/C(=C\c2ccc(Br)cc2)C(=O)NC2CCCCC2)cc1,AC50,[1],"0.398 µM [falling, full curve, poor fit]"
O=C(Nc1cccc(F)c1)C1CCN(c2nc3ccccc3[nH]2)CC1,AC50,[1],"2.51 µM [falling, partial curve, poor fit]"
Cc1cccc(-n2ccnc2SCC(=O)Nc2ccc3c(c2)OCO3)c1,AC50,[1],"31.6 µM [falling, single point]"
COC(=O)c1ccc(OCC2c3cc(OC)c(OC)cc3CCN2C(=O)c2ccco2)cc1 (stereo unspecified),AC50,[1],"10 µM [falling, partial curve]"
Cc1nc2c3ccccc3nc(NNC(=O)CCC(=O)N3CCN(c4cccc(C(F)(F)F)c4)CC3)n2n1,AC50,[1],"25.1 µM [falling, single point]"
O=C(C1CCN(S(=O)(=O)c2cccc3nsnc23)CC1)N1CC=C(c2ccccc2)CC1,AC50,[1],"10 µM [falling, partial curve]"
Cc1ccc(NC(=O)CSCc2cnn(-c3ccccc3)c2-n2cccc2)c(Cl)c1,AC50,[1],"39.8 µM [falling, single point]"
CCc1ccccc1NC(=O)Cn1c(=O)n(-c2ccc(C)c(C)c2)c(=O)c2oc3ccccc3c21,AC50,[1],"0.631 µM [falling, partial curve]"
CCCN(CCC)S(=O)(=O)c1cc(Br)cc2c1N(C(=O)CC)CC2,AC50,[1],"12.6 µM [falling, partial curve]"
COc1cc(Br)ccc1C1C(C(=O)Nc2ccc(C)cc2C)=C(C)Nc2nnnn21 (stereo unspecified),AC50,[1],"39.8 µM [falling, single point]"
COc1ccc(CCNc2nc3ccccc3c3nc(-c4cccc(C)c4)nn23)cc1OC,AC50,[1],"15.8 µM [falling, single point]"
COc1ccc(S(=O)(=O)NCCc2sc(-c3cccc(C)c3)nc2C)cc1,AC50,[1],"39.8 µM [falling, single point]"
Cc1ccc(CCNC(=O)c2cccc(Nc3nc4ccccc4nc3-n3nc(C)cc3C)c2)cc1,AC50,[1],"31.6 µM [falling, single point]"
CCc1ccc(-n2nc(C)c3c(C(=O)N4CCN(c5cccc(Cl)c5)CC4)cc(C)nc32)cc1,AC50,[1],"39.8 µM [falling, single point]"

# A second format for part of the listing above:
smiles | measurement | setting | value
Cc1ccc2[nH]c3c(=O)n(CC(=O)NCCc4ccc(Cl)cc4)ncc3c2c1 | AC50 | [1] | 20 µM [rising, partial curve]
Cc1oc2c(c(C)cc3oc(=O)c(CC(=O)NCc4ccccc4)c(C)c32)c1C | AC50 | [1] | 39.8 µM [falling, single point]
CCN(CC)S(=O)(=O)c1cccc(C(=O)Nc2nc3cc4c(cc3s2)OCCO4)c1 | AC50 | [1] | 3.98 µM [falling, full curve]
COc1cccc(-c2nccc(NCCc3c[nH]c4ccc(OC)cc34)n2)c1 | AC50 | [1] | 3.16 µM [falling, partial curve]
CC1CCN(Cc2ccc(NC(=O)CC3Oc4ccccc4NC3=O)cc2)CC1 (stereo unspecified) | AC50 | [1] | 12.6 µM [falling, partial curve]
COc1ccc(C(=O)Nc2nnc(C(F)(F)F)s2)cc1 | AC50 | [1] | 0.158 µM [falling, full curve]
CC(=O)c1ccc(NC(=O)CCc2c(C)nn(-c3ccc(N4CCCCC4)nn3)c2C)cc1 | AC50 | [1] | 12.6 µM [falling, partial curve]
O=C(CSc1nc2c([nH]c3ccccc32)c(=O)n1-c1ccccc1)N1CCCCCC1 | AC50 | [1] | 3.16 µM [rising, full curve, poor fit]
C=CCN1C(=Nc2cccnc2)SCC1(O)c1ccc(C)cc1 (stereo unspecified) | AC50 | [1] | 10 µM [falling, partial curve]
O=C(O)c1ccc(NC(=O)c2cc3ccccc3o2)cc1 | AC50 | [1] | 0.1 µM [falling, full curve]
Cc1nc2c3ccccc3nc(NNC(=O)CCC(=O)N3CCN(c4cccc(C(F)(F)F)c4)CC3)n2n1 | AC50 | [1] | 25.1 µM [falling, single point]
O=C(C1CCN(S(=O)(=O)c2cccc3nsnc23)CC1)N1CC=C(c2ccccc2)CC1 | AC50 | [1] | 10 µM [falling, partial curve]
